Earlier results as cited in US7833998B2, “Oral neurotherapeutic cephalosporin sulfoxide and sulfone-containing compositions” (Revaax Pharmaceuticals, LLC, priority 2003, dated 2010).
At least one compound was matched to its structure with a doubt left. Some entries share one result that the patent states for a list of compounds.

Key:
golden hamsters = settings: King et al. 2001, cited from earlier work
Wistar rats = settings: rat, literature validation of the method; cited from earlier work

CNC1=Nc2ccc(Cl)cc2C(c2ccccc2)=[N+]([O-])C1 [chlordiazepoxide]
effect on seed finding (golden hamsters; effective anxiolytics at doses of 1 μg/kg and above): dramatically reduce | time to find seeds (golden hamsters; hamsters treated with traditional anxiolytics, untreated 1-2 minutes): less than 20 seconds | number of entries into the open arms (Wistar rats): significantly increase | percentage of time spent in the open arms (Wistar rats): significantly increase
